Experimental data: patent US12714702B2, “Compositions and methods for treating or preventing pulmonary hypertension” (priority 2020, dated 2026)

Assays:
[1] = test system: SU5416/hypoxia-induced PAH model; details: SU5416/hypoxia rats, QA 10 mg/kg once-a-day
primary human PASMC = details: QA 2.5-10 μM, 3 hours, concentration-dependent

In the case of `CCN(CC)CCCC(C)Nc1c2ccc(Cl)cc2nc2ccc(OC)cc12` (centres unmarked) [QA, quinacrine], the toxicity [1] is reported as “minimal toxicity” and the “cellular uptake (internalization)” value (primary human PASMC) is reported as “capable of inherently internalizing”.
